According to PubChem BioAssay AID2685 (National Center for Advancing Translational Sciences (NCATS), 2010):
The whole screen tested about 320,000 compounds, of which about 2,100 (0.66%) were called active. This list was built around the results that the source calls inconclusive (neither active nor inactive); the mix of calls is not that of the screen. Calls follow the shape of the dose curve; as a rule, active = well fitted inhibition curve with a large enough effect in the signal ratio, with a control signal flat (not every such curve was filed as active); inconclusive = small, poorly fitted or top-dose-only effect, or effect the other way, or a change in a side signal; inactive = flat fitted curve, though single readings scatter; the % refers to the signal ratio. A potency beside an inconclusive call is a rough fit, not a confirmed value.

Test: qHTS Assay for Lipid Storage Modulators in Drosophila S3 Cells
Details: BODIPY lipid droplet fluorescence, 18-24 h, cells fed with added oleic acid; lipid storage change, negative = inhibition: at 46.1 µM (top of the series) unless noted
Summary of the method: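 Laser-scanning cytometry quantifies lipid droplet accumulation (500–530 nm total intensity; droplet/cell object ratio) in oleic acid-fed (400 uM added) Drosophila S3 cells treated with a concentration series. 20 uM Triacsin C defined 100% inhibition.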
% is scaled to controls: 0 for no effect and ±100 for the full control effect; potency is read from the fitted curve at half-maximal effect.

SMILES | Potency | lipid storage change, negative = inhibition | outcome
O=C(NCC1COc2ccccc2O1)c1ccc(-n2cncn2)c([N+](=O)[O-])c1 (configuration not stated) | inconclusive: 0.116 µM [falling, full curve, poor fit] | – | –
O=C(c1ccccc1)c1cnc(Nc2ccccc2Cl)s1 | – | inconclusive: 29.9% | –
Cc1ccc(Sc2ccc(S(=O)(=O)Nc3ccc(CC(=O)O)cc3)cc2)cc1C | – | inconclusive: 49.9% | –
COc1ccc(-n2ncc3c2CC(C)(C)CC3NC(=O)c2ccnn2C)cc1 (configuration not stated) | active: 14.6 µM | – | –
OCC[C@H]1C[C@@H](O)[C@H](O)[C@@]2(OCc3ccccc32)O1 | – | inconclusive: 6.94% | –
N/C(=N\N=C\c1ccco1)SC1CC(=O)N(c2ccc(C(=O)O)cc2)C1=O (configuration not stated) | inconclusive: 2.31 µM [falling, full curve] | – | –
O=S(=O)(NCC1OCCc2ccccc21)c1ccccc1 (configuration not stated) | inconclusive: 18.4 µM [activator, single point] | – | –
CCn1c(SCC(=O)c2ccccc2)nc2ccccc2c1=O | – | inconclusive: -0.106% | –
CC(C)OC(=O)CN1C(=O)C(C)(C)Oc2ccc(C(=O)NC(C)(C)C)cc21 | inconclusive: 11.6 µM [activator, partial curve] | – | –
COc1ccccc1C(=O)Nc1nnc(-c2ccc3c(c2)CCCC3)o1 | – | inconclusive: 38.5% [activator] | –
C/C(=C\c1cc2ccccc2o1)C1Nc2cccc3cccc(c23)N1 | – | inactive: 19.1% | –
COc1ccc2cc(C(C)C(=O)O)ccc2c1 (configuration not stated) | – | inconclusive: 26.3% | –
O=S(=O)(NCC(Nc1ccc(Cl)cc1)c1ccccc1)c1ccccc1 (configuration not stated) | – | inconclusive: -43.5% | –
CCOC(=O)N1CCC(NC(=O)CCC(=O)N2CC(C)Oc3ccc(Cl)cc32)CC1 (configuration not stated) | inconclusive: 3.26 µM [activator, single point] | – | –
CC(=O)Nc1ccc(SCC(=O)c2ccc(Br)s2)cc1 | – | – | inactive [at 46.1 µM]
CC(C)c1ccc(NC(=O)CSC(C)c2nc3ccccc3c(=O)[nH]2)cc1 (configuration not stated) | – | inconclusive: 35.9% | –
O=c1ccc(-c2ccccc2)nn1Cc1ccc(F)cc1 | inconclusive: 29.1 µM [falling, single point] | – | –
CN(C)c1ncnc2c1NC1=C(S2)C(=NCCCC(=O)O)CC(C)(C)C1 | – | inconclusive: -11% | –
O=C(O)CCn1c(SCc2cccc3ccccc23)nc2ccccc21 | – | inconclusive: 189% | –
Cc1ccc(C(=O)OCc2cn3ccccc3n2)cc1 | – | inconclusive: 88.9% | –
CCOC(=O)N1CCN(C(=O)/C=C/c2cccc([N+](=O)[O-])c2)CC1 | – | inconclusive: 9.88% | –
Cc1ccc(S(=O)(=O)N(C)C)cc1NC(=S)NC(C)CCCC(C)C (configuration not stated) | – | inconclusive: -9.48% | –
CCCCCCSc1nsc(NC(C)=O)n1 | – | inconclusive: 85.5% | –
CCOC(=O)C1=C(N)OC2=C(C(=O)CCC2)C1c1cccnc1 (configuration not stated) | – | inconclusive: 49.3% | –
Cc1ccc(NC(=O)c2ccccc2-c2cc(C)no2)cc1 | – | inconclusive: 9.44% | –
COc1ccc(N2CCN(C(=O)CN3C(=O)NC4(CCCCCC4)C3=O)CC2)cc1 | active: 5.8 µM | – | –

SMILES | Potency | lipid storage change, negative = inhibition | outcome
CCOc1ccc(-n2c(-c3ccccc3)c[nH]c2=S)cc1 | – | inconclusive: -102% | –
CCN(CC)CCNC(=O)c1ccc(Cl)c(S(=O)(=O)N2CCCCCC2)c1 | – | inconclusive: 0.227% | –
CC(=O)Cc1nsc(NC(=O)c2ccc(COc3ccccc3C)o2)n1 | inconclusive: 0.116 µM [activator, full curve, poor fit] | – | –
CC(=O)Nc1ccc(Nc2cc(C)c3ccccc3n2)cc1 | – | inconclusive: -31.4% | –
O=C1c2ccccc2S(=O)(=O)N1Cc1cccc(S(=O)(=O)N2CCOCC2)c1 | inconclusive: 20.6 µM [activator, single point] | – | –
Cc1scc(C(=O)Nc2ccon2)c1-c1ccccc1 | – | inconclusive: 64.9% | –
C=CCOc1cccc(C2/C(=C(\O)c3ccc4c(c3)OCCO4)C(=O)C(=O)N2Cc2cccnc2)c1 (configuration not stated) | – | inconclusive: 25.2% | –
Cc1cc(C)n(C(=O)Cn2nc([N+](=O)[O-])c(Br)c2C)n1 | – | inconclusive: -7.53% | –
O=C(NCCCN1CCOCC1)c1csc2c1CCCC2 | – | inconclusive: -85.1% [at 0.0737 µM] | –
O=C(COC(=O)c1c(Cl)cccc1Cl)Nc1cccc(S(=O)(=O)NC2=NCCCCC2)c1 | – | inconclusive: 11.3% | –
CCc1cccc(NC(=S)N(CCN(C)C)C(C)c2ccncc2)c1 (configuration not stated) | – | inactive: 15% | –
COc1ccccc1C(c1nnnn1Cc1ccco1)N1CCN(c2cccc(C)c2C)CC1 (configuration not stated) | – | inconclusive: -13.8% | –
COc1cccc(C(=O)C[n+]2cccc3cc(OC)ccc32)c1 | inconclusive: 0.0366 µM [falling, full curve, poor fit] | – | –
O=C1c2ccccc2CN2C(=O)c3ccccc3CN12 | inconclusive: 2.31 µM [activator, partial curve, poor fit] | – | –
Cc1c(Br)c([N+](=O)[O-])nn1CC(=O)Nc1cccc2nonc12 | – | inconclusive: 45.6% | –
COC(=O)C1=C(C)N(Cc2ccccc2)C(=NCc2cc(OC)c(OC)c(OC)c2)N[C@H]1c1cccc(F)c1 | – | inconclusive: 33.2% | –
CCOC(=O)c1oc2ccccc2c1COC(=O)CNC(=O)c1ccccc1 | – | inactive: -1.38% | –
CCCCNc1c([N+](=O)[O-])c(=O)n(C)c2ccccc12 | – | inconclusive: 23% | –
O=C(Nc1cccc(Br)c1)c1ccc(Cl)c(S(=O)(=O)N2CCOCC2)c1 | inconclusive: 10.3 µM [falling, partial curve] | – | –
COc1ccc2nc(C)cc(SCC(=O)N/N=C/c3ccccc3)c2c1 | inconclusive: 0.326 µM [activator, partial curve, poor fit] | – | –
O=C(NCc1ccco1)C1CCC(N2C(=O)c3ccccc3C2=O)CC1 (configuration not stated) | – | inconclusive: 34.6% | –
Cc1ccc(-c2nnc3sc(CCc4ccccc4)nn23)cc1 | inconclusive: 1.3 µM [activator, partial curve] | – | –
COc1ccc(-c2cc3cc(OC)c(OC)cc3c(C)n2)cc1C | inconclusive: 1.3 µM [falling, full curve] | – | –
COC(=O)c1cc(C(=O)OCC(=O)NCc2cccs2)cc([N+](=O)[O-])c1 | – | inactive: -3.38% | –
O=C(Oc1ccccc1)c1cccc2cccc(C(=O)Oc3ccccc3)c12 | inconclusive: 29.1 µM [falling, single point] | – | –
CCOC(=O)c1ccc(/C=N/O)[n+](Cc2ccccc2)c1 | – | inconclusive: 8.67% | –

Some of these compounds in order of molar mass, falling:
SMILES | Potency | lipid storage change, negative = inhibition | outcome
CC(=O)Cc1nsc(NC(=O)c2ccc(COc3ccccc3C)o2)n1 | inconclusive: 0.116 µM [activator, full curve, poor fit] | – | –
Cc1ccc(-c2nnc3sc(CCc4ccccc4)nn23)cc1 | inconclusive: 1.3 µM [activator, partial curve] | – | –
CC(=O)Nc1ccc(Nc2cc(C)c3ccccc3n2)cc1 | – | inconclusive: -31.4% | –

Carrying on:

SMILES | Potency | lipid storage change, negative = inhibition | outcome
COc1ccc(/C=C/C(=O)c2ccc3ccccc3c2O)cc1CN1CCOCC1 | – | inconclusive: 89.1% | –
Cc1nc2cc(NC(=O)COc3ccc(C#N)cc3)ccc2n1-c1ccccc1 | – | inconclusive: -17.6% | –
CCN1CCN(C(=O)N2CCOCC2)CC1 | inconclusive: 7.31 µM [falling, single point] | – | –
C/C(=N\Nc1cccc([N+](=O)[O-])c1)c1cc2ccccc2o1 | – | inconclusive: -1.82% | –
CC(C)Sc1nc2sc3c(c2c2nnc(SCC(=O)NCc4ccco4)n12)CCCC3 | inconclusive: 0.58 µM [rising, full curve, poor fit] | – | –
O=C(N/N=C/c1sc(N2CCCCC2)nc1-c1cccs1)c1cccnc1 | inconclusive: 35.5 µM [falling, single point] | – | –
COc1ccc(C(NC(=O)CC(C)C)NC(=O)CC(C)C)cc1OC | – | inconclusive: -42.7% [at 0.0737 µM] | –
CCc1ccc(-n2cccc2/C=C2/C(=N)N3C(=NC2=O)SN=C3S(C)(=O)=O)cc1 | – | inconclusive: 5.96% | –
COc1ccc(CCNC2=NCC(C)S2)cc1 (configuration not stated) | – | inconclusive: -27.1% | –
COc1ccc(CCNC2=C(Cl)C(=O)N(CCc3ccc(OC)c(OC)c3)C2=O)cc1OC | inconclusive: 5.17 µM [activator, single point] | – | –
CC(O)CNc1nc2c(c(=O)n(Cc3cccc(Cl)c3)c(=O)n2C)n1C (configuration not stated) | – | inconclusive: 8.58% | –
CCOC(=O)c1sc(NC(=O)Nc2ccccc2)cc1C | inconclusive: 29.1 µM [cytotoxic, partial curve, poor fit] | – | –
O=C(NNC(=S)Nc1ccc(Cl)c(Cl)c1)c1cccc([N+](=O)[O-])c1 | – | inconclusive: -2.29% | –
Cc1ccc(C2=NCN(c3ccc(C(=O)O)cc3)C(=S)N2)cc1 | – | inconclusive: -7.94% | –
COC(=O)CN1CCN(C(=O)c2ccc(F)cc2)c2ccccc2C1 | inconclusive: 0.103 µM [falling, full curve, poor fit] | – | –
O=c1c(CN2CCN(c3ccccn3)CC2)coc2ccccc12 | – | inconclusive: 5.42% | –
COc1cc(CN2CCCC(N3CCN(c4ccccc4C)CC3)C2)ccc1O (configuration not stated) | – | inconclusive: 21.4% | –
Cc1[nH]nc(-c2ccc(O)c(C)c2O)c1-c1cnn(-c2ccccc2)c1 | inconclusive: 2.59 µM [activator, partial curve] | – | –
Cc1nc2ccccc2c2nc3ccccc3n12 | inconclusive: 9.2 µM [activator, partial curve] | – | –
CC1(CCc2ccccc2)NC(=O)N(CC(=O)Nc2ccc(S(N)(=O)=O)cc2)C1=O (configuration not stated) | – | inconclusive: -62.8% | –
CCCCC1CCC(/C(N)=N/O)CC1 (configuration not stated) | – | inconclusive: 16.4% | –
CCN(CC)Cc1c(C(=O)N/N=C/c2ccncc2)nnn1-c1nonc1N | – | inconclusive: -32.5% | –
Cc1ccc2oc(=O)n(CC(=O)O)c2c1 | – | inconclusive: -4.27% | –
CC(C)(CNC(=O)C1CCCN1C(=O)c1cccs1)N1CCOCC1 (configuration not stated) | – | inconclusive: 1.91% | –
COc1cccc(C(C(=O)NC2CCCCC2)N(Cc2ccco2)C(=O)c2ccccn2)c1 (configuration not stated) | inconclusive: 0.058 µM [activator, partial curve, poor fit] | – | –
